Results are given in words; binding and its absence hold for the method and conditions named. Binding can be weak; no strength is given.
Legend:
[1] = molecular target: rhesus macaque MET (biotinylated) (rhesus macaque); experiment: dilution ELISA, unpurified VHH on plates coated with rhesus macaque MET
[2] = molecular target: rhesus macaque MET (biotinylated) (rhesus macaque); experiment: ELISA counter screen
[3] = molecular target: rhesus macaque MET (biotinylated) (rhesus macaque); experiment: dilution ELISA, unpurified VHH on coated MET

binding [1] | binding [2] | binding [3] | Binder
binds | binds | – | 2G9 VHH (VHH) VHH: EVQLVESGGALVQPGGSLRLSCAASGFTFGAYDMVWVRHATGKGPEWISFISNGGEEVSYASSVKDRFTISRDNAQNMLYLQMNNLKPEDTAVYYCARSTDVSPGLSSWWTYEYDVWGQGTLVTVSS
binds | binds | binds | 1E7 VHH (VHH) VHH: EVQLVESGGGLVQPGGSLRLSCEASGFNFERYDMSWVRQAPGKGPEWVSRLNSFGRSTYYLDSVKGRFTVSRDNAQNMLYLQMNNLKPEDTAVYYCARSTDVSPGLSSWWTYEYDVWGQGTQVTVSS
binds | binds | – | 1A2 VHH (VHH) VHH: EAQLVESGGGLVQPGGSLRLSCEASGFNFERYDMSWVRQAPGKGPEWVSRLNSFGRSTYYLDSVKGRFTVSRDTAKSTFYLQMNNLKPEDAGVYYCARSTDVSPGLSSWWTYEYDVWGQGTQVTVSS
